PubChem BioAssay AID1259425, University of Nebraska Medical Center | 2018
Test: 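Seek colon cancer weak points whose silencing resembles KSR1 loss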 (primary screen). Cells: HCT116 human colon cancer cells. Knock-down reagent: siRNA pool against human genes, 50 nM siRNA. Detection: 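After 50 nM siRNA pool, branched-DNA assay measures six marker transcripts per well, minus blank, normalised to the geometric mean of two housekeeping transcripts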. Direction: BNIP3L mRNA: higher = more BNIP3L transcript after knockdown.
Here is an unselected part of about 14,000 reagents. Further read-outs or replicates are left out here. No sequences are given here. The record does not give: the time to read-out.

Depletion of ADAMTS16 (GeneID 170690) came out at: BNIP3L mRNA, set 1 = 0.0762.
For GRPEL1 (GeneID 80273), the values are BNIP3L mRNA, set 1 = 0.131.
For GSTZ1 (GeneID 2954), the entry reads BNIP3L mRNA, set 1 = 0.0789.
Depletion of CBR4 (GeneID 84869) resulted in: BNIP3L mRNA, set 1 = 0.134.
Depletion of SEC14L2 (GeneID 23541) came out at: BNIP3L mRNA, set 1 = 0.0245.
Against SEC23IP (GeneID 11196), the values are BNIP3L mRNA, set 1 = 0.106.
CTBP1 (GeneID 1487) gave BNIP3L mRNA, set 1 = 0.109.
SLC7A1 (GeneID 6541) showed BNIP3L mRNA, set 1 = 0.0701.

Ordered by “BNIP3L mRNA, set 1” (descending): some entries from above.
CBR4 (GeneID 84869): BNIP3L mRNA, set 1 = 0.134
SEC14L2 (GeneID 23541): BNIP3L mRNA, set 1 = 0.0245

The results go on:
After knock-down of TNR (GeneID 7143), the screen gave BNIP3L mRNA, set 1 = 0.0632.
Silencing of RNF10 (GeneID 9921) came out at: BNIP3L mRNA, set 1 = 0.176.
For DHRS11 (GeneID 79154) the deposit lists BNIP3L mRNA, set 1 = 0.0794.
Silencing of GATAD2A (GeneID 54815) gave: BNIP3L mRNA, set 1 = 0.0732.
Knock-down of MRPL44 (GeneID 65080) gave: BNIP3L mRNA, set 1 = 0.0997.
Silencing of ADRA1D (GeneID 146) came out at: BNIP3L mRNA, set 1 = 0.176.
ZSCAN12 (GeneID 9753) gave BNIP3L mRNA, set 1 = 0.0888.
For WDR83OS (GeneID 51398), the values are BNIP3L mRNA, set 1 = 0.0495.
Depletion of CLEC11A (GeneID 6320) came out at: BNIP3L mRNA, set 1 = 0.134.
Against ATG16L1 (GeneID 55054) the deposit lists BNIP3L mRNA, set 1 = 0.172.
After knock-down of AGGF1 (GeneID 55109) the results were BNIP3L mRNA, set 1 = 0.0753.
